The list does not hold the whole screen: it gathers tests that were run many times, whatever their T/C, doses with no T/C, and many T/C values between a quarter and a half above the control. Other doses and runs of a compound stand elsewhere. T/C: endpoint of the treated group in % of that of the vehicle group. Some doses have a count of surviving animals in place of a T/C: the source holds a T/C of zero for them, seemingly a mark for toxic or unscored doses. Some survivor counts are full or nearly so, which does not show that the dose was tolerated: the source hardly ever lists a survival T/C far under the control, and the zero likely stands for such cases as well. Survivors were counted at the toxicity check, usually on the fifth day, unless a day is given; later deaths do not show. Schedules are NCI's codes, taken here to give the interval after Q, in days (D) or hours (H), and the number of doses after X. Some entries hold several experiments; their values stand side by side, smallest first. For survival time, the PubChem record calls one and a half times the control and up active, and a quarter to a half above the control has no call in these data; cut-offs in other NCI protocols can differ.

This assay deals with P388 leukemia ip, CD2F1 mice, survival T/C. In words: NCI In Vivo Anticancer Drug Screen. Data for tumor model P388 Leukemia (intraperitoneal) in CD2F1 (CDF1) mice. The settings on record: T/C endpoint: median survival time, higher T/C = longer survival.
[1] abbreviates: dose: 60.0 mg/kg/injection, schedule: Q01DX005 (ip), vehicle: saline with Tween-80.
The mark [2] stands for this setting: dose: 50.0 mg/kg/injection, schedule: Q01DX009 (ip), vehicle: saline with Tween-80.
Setting [3] is: dose: 100.0 mg/kg/injection, schedule: Q01DX009 (ip), vehicle: saline.
Setting [4] is: dose: 3.12 mg/kg/injection, schedule: Q01DX009 (ip), vehicle: Klucel (hydroxypropylcellulose) (HPC).
[5] abbreviates: dose: 6.25 mg/kg/injection, schedule: Q01DX009 (ip), vehicle: Klucel (hydroxypropylcellulose) (HPC).
[6] abbreviates: dose: 25.0 mg/kg/injection, schedule: Q01DX009 (ip), vehicle: saline with Tween-80.
The mark [7] stands for this setting: dose: 200.0 mg/kg/injection, schedule: Q01DX005 (ip), vehicle: Klucel (hydroxypropylcellulose) (HPC).
[8] abbreviates: dose: 100.0 mg/kg/injection, schedule: Q01DX009 (ip), vehicle: saline with Tween-80.
The mark [9] stands for this setting: dose: 200.0 mg/kg/injection, schedule: Q01DX009 (ip), vehicle: saline with Tween-80.
Where [10] appears, read: dose: 400.0 mg/kg/injection, schedule: Q01DX009 (ip), vehicle: saline.
The mark [11] stands for this setting: dose: 200.0 mg/kg/injection, schedule: Q01DX005 (ip), vehicle: saline with Tween-80.
The mark [12] stands for this setting: dose: 200.0 mg/kg/injection, schedule: Q01DX009 (ip), vehicle: saline.
The mark [13] stands for this setting: dose: 50.0 mg/kg/injection, schedule: Q01DX005 (ip), vehicle: saline with Tween-80.
Where [14] appears, read: dose: 100.0 mg/kg/injection, schedule: Q01DX005 (ip), vehicle: saline with Tween-80.
The mark [15] stands for this setting: dose: 400.0 mg/kg/injection, schedule: Q01DX009 (ip), vehicle: saline with Tween-80.

`CC(O)/C(=N\Nc1ccccc1)c1nc2ccccc2[nH]c1=O` (stereo unspecified): the survivor count by setting is: under setting [1], 6 of 6; (dose: 240.0 mg/kg/injection, schedule: Q01DX005 (ip), vehicle: saline with Tween-80) 5 of 6.

Take `CCCCCCCCCCCCC(O)CCC1CCCCN1` (stereo unspecified): the survivor count (dose: 200.0 mg/kg/injection, schedule: Q01DX005 (ip), vehicle: saline) is 0 of 6.

In the case of `O=C(NC1CCCCC1)N1CCCC1`, the survivor count under setting [2] is listed as 5 of 6.

Take `CC/C(=N/NS(=O)(=O)c1ccc(C)cc1)c1ccc(C(C)(C)C)cc1`: under setting [3], the survivor count is reported as 6 of 6.

In the case of `C1CCC2[N-]CC3CCCCC3[N-]CC3CCCCC3[N-]CC3CCCCC3[N-]CC2C1.[Cu+2].[O-][Cl+3]([O-])([O-])O` (stereo unspecified), the T/C (dose: 1.56 mg/kg/injection, schedule: Q01DX009 (ip), vehicle: Klucel (hydroxypropylcellulose) (HPC)) is 136 % of control; the T/C under setting [4] is 136 % of control; the T/C under setting [5] was 145 % of control; the T/C (dose: 12.0 mg/kg/injection, schedule: Q01DX009 (ip), vehicle: saline with Tween-80) is 145 % of control; the T/C (dose: 18.0 mg/kg/injection, schedule: Q01DX009 (ip), vehicle: saline with Tween-80) was 139 % of control; the T/C under setting [6] is 135 % of control. For the same compound, the survivor count is listed as 6 of 6 under setting [4]; 6 of 6 under setting [5]; 0 of 6 (dose: 50.0 mg/kg/injection, schedule: Q01DX009 (ip), vehicle: Klucel (hydroxypropylcellulose) (HPC)).

Consider `Cc1cc2ccccc2c[n+]1[O-]`, for which the survivor count under setting [7] is 0 of 5.

For the compound `CC/C(C)=N\NC(=S)SC`, the survivor count by setting is: (dose: 12.5 mg/kg/injection, schedule: Q01DX009 (ip), vehicle: saline with Tween-80) 2 of 6; under setting [6], 2 of 6; under setting [2], 0 of 6; under setting [8], 0 of 6; under setting [9], 0 of 6.

For `CNC(=O)CC(N)C(=O)O` (stereo unspecified), the T/C under setting [10] is 125 % of control.

For `NC(=O)c1[nH]c(=O)[nH]c(=O)c1CSc1ccc(Cl)cc1`, the survivor count under setting [11] is listed as 5 of 6.

Regarding `O=C(Nc1cccc(Br)c1)Oc1ccc(Cl)c2cccnc12`, the survivor count runs as follows: under setting [1], 5 of 6; (dose: 120.0 mg/kg/injection, schedule: Q01DX005 (ip), vehicle: saline with Tween-80) 6 of 6.

As to `CCCCCCCCCCCCCCCC[N+]1(CC)CCCCC1`, the survivor count is, setting by setting: (dose: 1.56 mg/kg/injection, schedule: Q01DX009 (ip), vehicle: saline) 1 of 6; (dose: 3.12 mg/kg/injection, schedule: Q01DX009 (ip), vehicle: saline) 6 of 6; (dose: 6.25 mg/kg/injection, schedule: Q01DX009 (ip), vehicle: saline) 2 of 6; (dose: 12.5 mg/kg/injection, schedule: Q01DX009 (ip), vehicle: saline) 1 of 6; (dose: 50.0 mg/kg/injection, schedule: Q01DX009 (ip), vehicle: saline) 0 of 6; under setting [3], 0 of 6. Further, the survivor count under setting [12] is listed as 0 of 6.

For `C=C1C(=C)C2OC1c1cc3c(cc12)C(=O)C=CC3=O`, the survivor count was 0 of 6 and 2 of 6 under setting [13]; 0 of 6 under setting [14]; 0 of 6 under setting [11].

`ICCCCCCCCCC[n+]1ccc2ccccc2c1`: the survivor count is 3 of 5 under setting [14] and 0 of 5 under setting [11].

Regarding `OC1CC2CCC(N2)C1c1ccccc1` (stereo unspecified), the survivor count is, setting by setting: under setting [14], 2 of 6; under setting [11], 0 of 6.

With `ClC1CCC[N-]C1.ClC1CCC[N-]C1.[Cl][Pt+2][Cl]` (stereo unspecified), under “dose: 25.0 mg/kg/injection, schedule: Q01DX009 (ip), vehicle: Klucel (hydroxypropylcellulose) (HPC)”, the T/C is 125 % of control. In addition, the survivor count (dose: 100.0 mg/kg/injection, schedule: Q01DX009 (ip), vehicle: Klucel (hydroxypropylcellulose) (HPC)) was 6 of 6.

As to `CN(C)NP(=S)(NN(C)C)Oc1ccccc1`, the survivor count under setting [11] is listed as 2 of 5.

As to `CCCCCCCCCCCCCCCCN1CCSCC1`, under setting [12], the survivor count was 1 of 6.

On to `CC(C)CSc1nc2ccc(NC(=O)/C=C/C(=O)O)cc2s1`, for which, for the setting “dose: 200.0 mg/kg/injection, schedule: Q01DX009 (ip), vehicle: Klucel (hydroxypropylcellulose) (HPC)”, the survivor count is listed as 2 of 6.

As for `[Cl][Sn]([CH2]C[CH2][Sn]([Cl])([c]1ccccc1)[c]1ccccc1)([c]1ccccc1)[c]1ccccc1`, the survivor count (dose: 50.0 mg/kg/injection, schedule: Q01DX005 (ip), vehicle: Klucel (hydroxypropylcellulose) (HPC)) was 3 of 6; the survivor count (dose: 100.0 mg/kg/injection, schedule: Q01DX005 (ip), vehicle: Klucel (hydroxypropylcellulose) (HPC)) is listed as 1 of 6; the survivor count under setting [7] is listed as 0 of 6.

`O=C1c2ccccc2C(=O)c2c(NCCNCCO)ccc(NCCO)c21`: the T/C was 125 % of control (dose: 10.0 mg/kg/injection, schedule: Q04DX002 (ip), vehicle: saline); 142 % of control (dose: 20.0 mg/kg/injection, schedule: Q04DX002 (ip), vehicle: saline); 127 % of control (dose: 40.0 mg/kg/injection, schedule: Q04DX002 (ip), vehicle: saline); 144 % of control (dose: 80.0 mg/kg/injection, schedule: Q04DX002 (ip), vehicle: saline).

For `O=C(COc1ccccc1)OC(=O)COc1ccccc1`, under “dose: 400.0 mg/kg/injection, schedule: Q01DX009 (ip), vehicle: other”, the survivor count is on record as 1 of 6.

With `NCCCNCCSP(=O)(O)O`, the T/C under setting [8] is 135 % of control. Besides, the survivor count reads like this: under setting [12], 3 of 6; under setting [15], 0 of 6; under setting [10], 5 of 6.

Turning to `CC([NH-])C[NH-].[Br][Pt+2][Br]` (stereo unspecified), under “dose: 12.5 mg/kg/injection, schedule: Q04DX002 (ip), vehicle: saline with Tween-80”, the T/C is 145 % of control. The survivor count by setting is: (dose: 25.0 mg/kg/injection, schedule: Q04DX002 (ip), vehicle: saline with Tween-80) 4 of 6; (dose: 50.0 mg/kg/injection, schedule: Q04DX002 (ip), vehicle: saline with Tween-80) 1 of 6 and 6 of 6.

As for `C[N+]12OC3CCC(O)CC1CCCC2C3` (stereo unspecified), the survivor count is, setting by setting: (dose: 200.0 mg/kg/injection, schedule: Q01DX001 (ip), vehicle: water) 1 of 6; (dose: 400.0 mg/kg/injection, schedule: Q01DX001 (ip), vehicle: water) 0 of 6.

With `O=S(=O)(O)Cc1ccc(CS(=O)(=O)O)cc1`, the survivor count is given as 3 of 6 (dose: 100.0 mg/kg/injection, schedule: Q04DX002 (ip), vehicle: saline with Tween-80); 0 of 6 (dose: 200.0 mg/kg/injection, schedule: Q04DX002 (ip), vehicle: saline with Tween-80); 0 of 6 (dose: 400.0 mg/kg/injection, schedule: Q04DX002 (ip), vehicle: saline with Tween-80).

For `CS/C(=C/c1ccc2ccccc2[n+]1C)N1CCOCC1`, the survivor count reads like this: under setting [13], 0 of 5 and 0 of 6; under setting [14], 0 of 6; under setting [11], 0 of 6.

`ClCC1CSC(c2ccc3c(c2)OCO3)O1` (stereo unspecified): the T/C runs as follows: under setting [9], 131 % of control; under setting [15], 137 % of control.

Take `CC(/C=C/c1ccc(O)cc1)=N\NC(N)=S`: the survivor count is on record as 0 of 6 (dose: 60.0 mg/kg/injection, schedule: Q01DX005 (ip), vehicle: Klucel (hydroxypropylcellulose) (HPC)); 0 of 6 (dose: 120.0 mg/kg/injection, schedule: Q01DX005 (ip), vehicle: Klucel (hydroxypropylcellulose) (HPC)); 0 of 6 (dose: 240.0 mg/kg/injection, schedule: Q01DX005 (ip), vehicle: Klucel (hydroxypropylcellulose) (HPC)).

These data come from PubChem BioAssay AID330 (DTP/NCI, 2004).
